In PMC3364202 one finds binding data, which are given here for two substances.

By UniProt entry, the sequences of proteins in these tests, tags left out.
UniProt P54253: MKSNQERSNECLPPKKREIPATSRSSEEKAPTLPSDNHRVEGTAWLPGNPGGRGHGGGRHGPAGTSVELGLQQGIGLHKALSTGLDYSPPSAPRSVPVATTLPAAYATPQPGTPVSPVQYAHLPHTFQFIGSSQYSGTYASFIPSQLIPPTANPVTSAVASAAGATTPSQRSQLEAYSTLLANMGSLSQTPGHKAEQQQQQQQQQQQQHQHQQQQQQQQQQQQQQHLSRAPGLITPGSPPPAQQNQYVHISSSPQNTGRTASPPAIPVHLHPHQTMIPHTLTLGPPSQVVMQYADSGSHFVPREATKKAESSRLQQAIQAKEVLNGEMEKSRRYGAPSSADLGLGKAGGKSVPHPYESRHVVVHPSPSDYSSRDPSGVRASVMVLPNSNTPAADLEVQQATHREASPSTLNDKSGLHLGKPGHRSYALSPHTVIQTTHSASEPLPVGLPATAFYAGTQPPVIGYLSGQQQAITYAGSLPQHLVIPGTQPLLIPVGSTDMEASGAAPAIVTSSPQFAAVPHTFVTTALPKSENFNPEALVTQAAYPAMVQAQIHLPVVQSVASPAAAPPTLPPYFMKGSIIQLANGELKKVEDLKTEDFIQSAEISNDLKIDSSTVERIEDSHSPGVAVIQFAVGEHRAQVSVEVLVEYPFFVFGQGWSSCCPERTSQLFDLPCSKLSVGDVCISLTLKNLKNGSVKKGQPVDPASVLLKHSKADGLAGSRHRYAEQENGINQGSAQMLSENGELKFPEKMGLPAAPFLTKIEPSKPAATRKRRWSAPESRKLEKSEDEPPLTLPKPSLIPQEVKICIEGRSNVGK
UniProt Q99700: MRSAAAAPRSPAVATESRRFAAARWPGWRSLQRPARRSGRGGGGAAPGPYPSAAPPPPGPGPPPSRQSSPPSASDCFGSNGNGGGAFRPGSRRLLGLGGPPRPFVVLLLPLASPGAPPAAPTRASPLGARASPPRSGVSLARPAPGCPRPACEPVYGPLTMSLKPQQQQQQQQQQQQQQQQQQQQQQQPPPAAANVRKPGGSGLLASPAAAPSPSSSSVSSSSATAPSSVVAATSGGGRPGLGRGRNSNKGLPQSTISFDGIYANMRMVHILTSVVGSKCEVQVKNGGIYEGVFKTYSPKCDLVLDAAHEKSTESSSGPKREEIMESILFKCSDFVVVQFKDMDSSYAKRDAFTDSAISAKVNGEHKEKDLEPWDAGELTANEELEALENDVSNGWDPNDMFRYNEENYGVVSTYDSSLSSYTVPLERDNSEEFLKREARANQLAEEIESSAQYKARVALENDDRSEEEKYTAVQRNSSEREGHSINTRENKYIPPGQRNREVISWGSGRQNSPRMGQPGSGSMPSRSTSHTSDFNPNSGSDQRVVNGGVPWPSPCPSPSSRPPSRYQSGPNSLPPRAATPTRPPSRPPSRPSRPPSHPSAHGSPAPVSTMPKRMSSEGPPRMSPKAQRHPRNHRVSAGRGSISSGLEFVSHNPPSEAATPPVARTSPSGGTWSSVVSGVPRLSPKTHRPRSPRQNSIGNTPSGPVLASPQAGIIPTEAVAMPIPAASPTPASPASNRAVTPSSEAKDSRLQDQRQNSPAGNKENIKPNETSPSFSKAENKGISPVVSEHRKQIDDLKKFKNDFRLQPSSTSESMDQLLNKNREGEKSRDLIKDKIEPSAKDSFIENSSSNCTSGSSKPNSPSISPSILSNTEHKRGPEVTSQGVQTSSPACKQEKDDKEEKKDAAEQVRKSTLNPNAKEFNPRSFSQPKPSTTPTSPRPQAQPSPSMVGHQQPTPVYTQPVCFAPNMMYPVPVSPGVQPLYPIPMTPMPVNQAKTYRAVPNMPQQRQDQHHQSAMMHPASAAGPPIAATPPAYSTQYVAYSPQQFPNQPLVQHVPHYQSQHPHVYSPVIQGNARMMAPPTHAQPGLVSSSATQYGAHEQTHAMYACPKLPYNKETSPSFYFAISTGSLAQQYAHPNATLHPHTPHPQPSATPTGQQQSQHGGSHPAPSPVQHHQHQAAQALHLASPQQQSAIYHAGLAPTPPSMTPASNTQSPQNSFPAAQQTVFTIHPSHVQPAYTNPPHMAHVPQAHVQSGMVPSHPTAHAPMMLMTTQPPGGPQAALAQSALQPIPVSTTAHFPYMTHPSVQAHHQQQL

These are yes or no findings as the source states them, for the method shown. Binding seen in cells or lysates may run through a third protein. Some entries that bind do so weakly or less than the wild type.

The target in experiment [1] is T1, FOX-2 (endogenous, HEK293T) (human (endogenous in HEK293T)) (UniProt O43251).
T1 sequence: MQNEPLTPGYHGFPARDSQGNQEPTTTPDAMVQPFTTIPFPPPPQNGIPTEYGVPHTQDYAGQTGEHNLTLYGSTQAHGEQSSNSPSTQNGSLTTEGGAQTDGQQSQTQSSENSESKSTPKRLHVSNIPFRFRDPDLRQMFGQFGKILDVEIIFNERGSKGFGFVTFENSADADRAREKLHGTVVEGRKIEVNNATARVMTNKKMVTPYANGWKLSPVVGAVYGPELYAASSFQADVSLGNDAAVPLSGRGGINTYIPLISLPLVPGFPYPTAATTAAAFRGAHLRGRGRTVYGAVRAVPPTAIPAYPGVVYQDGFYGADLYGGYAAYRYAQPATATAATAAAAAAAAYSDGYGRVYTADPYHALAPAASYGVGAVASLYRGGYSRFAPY
Put plainly: co-IP; lysate (1 mg) of non-transfected HEK293T cells, anti-FOX-2 (Abnova) overnight at 4°C, Dynabeads; blot with anti-ATXN1; control without primary antibody.

For experiment [2], the target named is T2, FOX-2 (endogenous, HeLa) (human (endogenous in HeLa)) (UniProt O43251).
T2 sequence: T1 sequence
The experiment can be described thus: co-IP; HeLa cell lysate (20 mM Tris-HCl pH 7.4, 150 mM NaCl, 1 mM EDTA, 1% Triton X-100, Benzonase), anti-FOX-2 (Bethyl), Dynabeads; blot with anti-ATXN2 (BD-Biosciences).

For the substance “ATXN1 (endogenous, HEK293T) (from UniProt P54253 1-815)”, the binding result in experiment [1] was “binds”.

Turning to “ATXN2 (endogenous, HeLa) (from UniProt Q99700 1-1313)”, the binding result in experiment [2] is on record as “binds”.
